In this test the test system is patients with evidence of coronary artery disease. As to the kind of experiment: dal-PLAQUE-2: change in carotid intima-media thickness (B-mode ultrasound) by ADCY9 genotype. The test is classed as in vivo, human. An excerpt: The dal-PLAQUE-2 study (Tardif J C et al, Circulation Cardiovascular imaging 2011; 4:319-33) was a phase 3b multicenter, double-blind, randomized, placebo-controlled, parallel group trial designed to evaluate the effect of dalcetrapib on atherosclerotic disease progression in patients with evidence of coronary artery disease and carotid intima media thickness of at least 0.65 mm in the far wall of the common carotid arteries, as assessed by B-mode ultrasonography. A total of 931 patients were randomized to receive dalcetrapib 600 mg daily or matching placebo with intended treatment duration of 24 months. However, the trial was terminated prematurely concurrent with the termination of dal OUTCOMES (the latter due to futility). Patients continued study medication until they returned for follow-up carotid imaging at 12 months. Carotid B-mode ultrasound recordings at baseline, month 6, and month 12 were analyzed centrally at the core laboratory of the Montreal Heart Institute. Intima-media thickness (IMT) was analyzed on the far wall of the common carotid arteries. A segment of 10 mm in length of the common carotid artery was analyzed on serial examinations using an automated edge detection software (Carotid Analyzer, Medical Imaging Applications, Coralville, Iowa). Among the 411 participants in the dal-PLAQUE-2 trial who consented to the genetic study, 386 had imaging measures at baseline, 6 months and 12 months (194 and 192 in the dalcetrapib and placebo arms respectively). DNA was extracted from whole blood. The research protocols were approved by the relevant institutional review boards or ethics committees and all human participants gave written informed consent.
All acquired carotid ultrasound recordings were analyzed at the core laboratory of the Montreal Heart Institute by experienced technicians supervised by a physician. Images were required to meet quality and inclusion and exclusion criteria for eligibility prior to random assignment to study treatment. The methods for carotid intima-media thickness analysis included side-by-side viewing of baseline and follow-up studies.
Carotid arterial wall segments were assessed in a longitudinal view, perpendicular to the ultrasound beam, with a horizontal display of the arterial image in order to view the interfaces between blood and vascular structures on the longest possible segment. The localization of the end of the common carotid artery was used as the landmark in repositioning and analyzing comparative length of segments in baseline and follow-up studies. Intima-media thickness was analyzed on the far wall of the right and left common carotid arteries, to reduce variability of measurements. The average of the mean intima-media thickness values of the right and left common carotid arteries was used. A matched segment of 10 mm in length of the common carotid artery was analyzed on serial examinations (baseline, 6 months and 12 months), starting 5 mm proximal to the carotid bifurcation. The edge detection software Carotid Analyzer (Medical Imaging Applications LLC, Coralville, Iowa) was used to analyze intima-media thickness using the automated option. Two sets of carotid artery borders were identified: First, the media-adventitia borders were determined and verified by the reader. When required, their locations were semi-automatically modified to the correct location. When these borders were approved, the lumen-intima boundaries were automatically detected using the media-adventitia borders for guidance. Frames from looped sequences of intima-media thickness were selected for reading, and poor quality outlier frames were removed from the analysis when required.
For the dal-Plaque-2 population, mixed regression models for repeated measures analysis were tested in SAS software. The dal-Plaque-2 tested endpoint was the mean of IMT measures of common carotid arteries at the 6-month and the 12-month visits, using the baseline measure as covariate. […]

The source gives many values for each of these; only a part stands here.

The results in this text go back to US12371748B2, “Genetic markers for predicting responsiveness to therapy with HDL-raising or HDL mimicking agent” (Hoffmann-La Roche Inc., priority 2014, dated 2025).

On to `CCC(CC)CC1(C(=O)Nc2ccccc2SC(=O)C(C)C)CCCCC1` [dalcetrapib, thioisobutyric acid S-(2-{[1-(2-ethyl-butyl)-cyclohexanecarbonyl]-amino}-phenyl) ester], for which the “Change from baseline in carotid intima-media thickness, Mean” value (“Change from baseline” below) (rs1967309, heterozygotes, M06) is −0.003 mm; the “Change from baseline” value (rs1967309, homozygotes for minor allele, M06) is recorded as −0.005 mm; the “Change from baseline” value (rs2283497, homozygotes for major allele, M06) is 0.001 mm; the “Change from baseline” value (rs2283497, homozygotes for major allele, M12) is listed as −0.007 mm; the “Change from baseline” value (rs2531967, homozygotes for major allele, M06) is 0.005 mm; the “Change from baseline” value (rs2531967, homozygotes for major allele, M12) is 0.004 mm. The “Change from baseline” value is, setting by setting: (rs3730119, homozygotes for major allele, M06) −0.000 mm; (rs3730119, homozygotes for major allele, M12) −0.002 mm; (rs4786454, homozygotes for major allele, M06) 0.004 mm; (rs4786454, homozygotes for major allele, M12) 0.003 mm; (rs8061182, homozygotes for major allele, M06) −0.009 mm; (rs8061182, homozygotes for major allele, M12) −0.014 mm. The “Change from baseline” value (rs13337675, homozygotes for major allele, M06) is recorded as −0.003 mm; the “Change from baseline” value (rs13337675, homozygotes for major allele, M12) is recorded as −0.005 mm; the “Change from baseline” value (rs17136707, homozygotes for major allele, M06) is on record as 0.002 mm; the “Change from baseline” value (rs17136707, homozygotes for major allele, M12) is on record as −0.001 mm; the “Change from baseline” value (rs74702385, homozygotes for major allele, M06) stood at 0.002 mm; the “Change from baseline” value (rs74702385, homozygotes for major allele, M12) is on record as −0.001 mm. Further, the “Change from baseline” value runs as follows: (rs111590482, homozygotes for major allele, M06) 0.002 mm; (rs111590482, homozygotes for major allele, M12) −0.001 mm.
